Data published in PubChem BioAssay AID720504 (National Center for Advancing Translational Sciences (NCATS), 2013).
Hit rate of the full screen: of about 360,000 compounds, about 10,000 (2.8%) were called active. The shares of active, inactive and inconclusive entries below differ from those in the screen. Calls come from the whole dose curve; as a rule, active = well fitted inhibition curve with a large enough effect; inconclusive = small, poorly fitted or top-dose-only effect; inactive = flat fitted curve, though single readings scatter. Potencies beside an inconclusive call are fits to weak or partial responses and may not hold up.

Sequences of proteins named here, by UniProt entry; tags and fusion partners are left off.
UniProt P53350, whole entry, looked up: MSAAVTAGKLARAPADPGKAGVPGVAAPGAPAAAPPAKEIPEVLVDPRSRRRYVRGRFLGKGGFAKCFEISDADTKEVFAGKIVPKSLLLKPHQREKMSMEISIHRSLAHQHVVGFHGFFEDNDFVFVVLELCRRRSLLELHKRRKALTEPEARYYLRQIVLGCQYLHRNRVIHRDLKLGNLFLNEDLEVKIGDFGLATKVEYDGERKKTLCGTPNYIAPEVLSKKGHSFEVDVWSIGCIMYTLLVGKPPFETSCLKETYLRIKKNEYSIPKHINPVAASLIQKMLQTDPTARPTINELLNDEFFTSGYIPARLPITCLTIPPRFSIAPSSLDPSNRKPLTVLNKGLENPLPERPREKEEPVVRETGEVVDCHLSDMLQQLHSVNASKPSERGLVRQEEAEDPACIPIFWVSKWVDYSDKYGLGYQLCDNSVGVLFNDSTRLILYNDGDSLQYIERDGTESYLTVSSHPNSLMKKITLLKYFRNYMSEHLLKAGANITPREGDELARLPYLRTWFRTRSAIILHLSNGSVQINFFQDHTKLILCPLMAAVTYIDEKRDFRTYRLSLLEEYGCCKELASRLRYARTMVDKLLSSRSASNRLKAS

Molecular target: Serine/threonine-protein kinase PLK1 (Homo sapiens) (UniProt P53350)
Experiment: qHTS for Inhibitors of PLK1-PDB (polo-like kinase 1 - polo-box domain): Primary Screen; note: nearly all actives have a fitted effect of over 65% in size; for max response, negative = inhibition: series mostly up to about 57 µM
Conditions: Plk1 PBD binding of FITC phosphopeptide, fluorescence polarization
% is set by controls: 0 for no effect and ±100 for the full control effect; potency is the fitted concentration of half-maximal effect.

**Q.** `O=C(Nc1cccc(S(=O)(=O)Nc2ccccc2F)c1)c1ccc2ccccc2n1` was tested. Which Potency did it give?
**A.** active: 1.89 µM

**Q.** For `CCC(CC)CN1CCC(CN2C(=O)C(=O)NC[C@@H]2[C@@H](C)CC)CC1`, which Potency is on record?
**A.** inconclusive: 37.7 µM [inhibitor, single point]

**Q.** For `C/C(=N/NC(=O)CNC(=O)c1ccccn1)c1cccc([N+](=O)[O-])c1`, which Potency is on record?
**A.** inconclusive: 16.8 µM [inhibitor, single point]

**Q.** For `N#Cc1ccc(C2=CC(=O)C[C@H](c3ccc(F)cc3)C2)cc1`, which max response, negative = inhibition is on record?
**A.** inconclusive: -35.4% [inhibitor]

**Q.** How did the max response, negative = inhibition turn out when `O=C(O)c1ccccc1-c1ccccc1C(=O)Nc1cccc(O)c1` was run?
**A.** inconclusive: -31.1% [inhibitor]

**Q.** For `CN(CC(=O)Nc1ccc(F)cc1)c1ccc(S(=O)(=O)N2CCCCC2)cc1[N+](=O)[O-]`, which max response, negative = inhibition is on record?
**A.** inactive: 1.31%

**Q.** For `Cc1ccc(-c2csc(NC(=O)CSc3nc(C)cs3)n2)cc1`, which max response, negative = inhibition is on record?
**A.** inactive: -7.96%

**Q.** How did the max response, negative = inhibition turn out when `Cc1cc2c(NC(=O)Nc3ccccc3)cccc2nn1` was run?
**A.** inactive: 5.41%

**Q.** How did the Potency turn out when `CN(c1ccccc1)S(=O)(=O)c1ccc(NC(=O)c2nc(S(C)(=O)=O)ncc2Cl)cc1` was run?
**A.** active: 16.8 µM

**Q.** With `Cc1cc(C)c2nc(N3CCC(C(=O)NCCN4CCOCC4)CC3)sc2c1` as the compound, how does the Potency read?
**A.** inconclusive: 21.2 µM [inhibitor, single point]

**Q.** `NC(=O)NOCc1ccc(Cl)cc1Cl` was tested. Which Potency did it give?
**A.** active: 26.7 µM

**Q.** How did the Potency turn out when `CCc1ccc(-c2c(C)sc(NC(C)=O)c2C(N)=O)cc1` was run?
**A.** active: 26.7 µM

**Q.** Which max response, negative = inhibition does the source give for `C[C@@H]1CN([C@@H](C)CO)C(=O)CCCn2nncc2CO[C@H]1CN(C)S(=O)(=O)c1cccc(F)c1` here?
**A.** inactive: -15.4%

**Q.** With `O=C(CSc1nc2ccccc2c(=O)n1Cc1ccco1)N1CCN(c2ccccc2)CC1` as the compound, how does the max response, negative = inhibition read?
**A.** inactive: -8.13%

**Q.** For `O=[N+]([O-])c1ccc(/C=N/n2c(COc3ccccc3)n[nH]c2=S)cc1`, which Potency is on record?
**A.** inconclusive: 21.2 µM [inhibitor, partial curve]

**Q.** With `CCn1cc(/C=C(\NC(=O)c2ccccc2F)C(=O)NCCN2CCOCC2)c2ccccc21` as the compound, how does the Potency read?
**A.** inconclusive: 26.7 µM [inhibitor, single point]

**Q.** How did the Potency turn out when `CC(CC(=O)N1CCc2ccccc21)S(=O)(=O)c1ccc2c(c1)NC(=O)CO2` (stereo not given) was run?
**A.** active: 26.7 µM

**Q.** How did the max response, negative = inhibition turn out when `CCc1sc(C(=O)N(CCCOC)c2c(N)n(CC(C)C)c(=O)[nH]c2=O)cc1C` was run?
**A.** inactive: -9.76%

**Q.** How did the max response, negative = inhibition turn out when `CCCCCCCC(=O)NNC(=O)Cc1ccccc1` was run?
**A.** inactive: -6.34%

**Q.** With `Cc1c(-c2ccccc2)oc2c(C(=O)OCC(=O)Nc3ccc(C(N)=O)cc3)cccc2c1=O` as the compound, how does the Potency read?
**A.** inconclusive: 8.44 µM [inhibitor, single point]
